From the supplement of paper PMC10032668
This is one part of the list. Only hits are listed; about a third recur on repeated control peptides.

Chains of the proteins cited; added tags and fusions are not shown.
TPX2, Q9ULW0, UniProt Q9ULW0, whole entry: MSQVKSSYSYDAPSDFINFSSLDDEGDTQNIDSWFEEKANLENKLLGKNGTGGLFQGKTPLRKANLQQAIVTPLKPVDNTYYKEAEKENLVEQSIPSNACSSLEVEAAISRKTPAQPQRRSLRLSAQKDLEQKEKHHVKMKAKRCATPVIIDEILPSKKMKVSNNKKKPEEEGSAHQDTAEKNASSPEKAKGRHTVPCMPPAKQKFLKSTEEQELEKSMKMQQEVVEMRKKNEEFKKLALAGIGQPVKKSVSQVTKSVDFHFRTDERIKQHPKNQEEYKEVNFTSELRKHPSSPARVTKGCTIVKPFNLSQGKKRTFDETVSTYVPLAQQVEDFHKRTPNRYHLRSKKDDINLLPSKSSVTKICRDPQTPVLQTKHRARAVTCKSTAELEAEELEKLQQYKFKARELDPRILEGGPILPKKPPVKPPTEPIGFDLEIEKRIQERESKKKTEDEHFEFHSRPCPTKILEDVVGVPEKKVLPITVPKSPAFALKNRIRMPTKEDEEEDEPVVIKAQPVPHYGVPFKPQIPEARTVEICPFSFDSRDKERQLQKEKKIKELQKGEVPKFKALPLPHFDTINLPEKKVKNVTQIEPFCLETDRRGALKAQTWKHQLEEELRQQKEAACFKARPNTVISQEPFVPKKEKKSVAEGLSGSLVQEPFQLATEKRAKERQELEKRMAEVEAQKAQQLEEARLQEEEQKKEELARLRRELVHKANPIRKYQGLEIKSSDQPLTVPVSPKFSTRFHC
UFM1, P61960, UniProt P61960, whole entry: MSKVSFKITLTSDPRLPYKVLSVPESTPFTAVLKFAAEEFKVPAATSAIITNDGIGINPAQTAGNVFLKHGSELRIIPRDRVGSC
EIF3K, Q9UBQ5, UniProt Q9UBQ5, whole entry: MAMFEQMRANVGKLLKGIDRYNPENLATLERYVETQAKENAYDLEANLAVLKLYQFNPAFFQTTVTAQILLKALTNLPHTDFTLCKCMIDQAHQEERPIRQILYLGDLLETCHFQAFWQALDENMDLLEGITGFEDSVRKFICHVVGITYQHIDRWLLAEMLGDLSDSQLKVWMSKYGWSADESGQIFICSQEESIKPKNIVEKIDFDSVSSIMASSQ
GNAI2, P04899, UniProt P04899, whole entry: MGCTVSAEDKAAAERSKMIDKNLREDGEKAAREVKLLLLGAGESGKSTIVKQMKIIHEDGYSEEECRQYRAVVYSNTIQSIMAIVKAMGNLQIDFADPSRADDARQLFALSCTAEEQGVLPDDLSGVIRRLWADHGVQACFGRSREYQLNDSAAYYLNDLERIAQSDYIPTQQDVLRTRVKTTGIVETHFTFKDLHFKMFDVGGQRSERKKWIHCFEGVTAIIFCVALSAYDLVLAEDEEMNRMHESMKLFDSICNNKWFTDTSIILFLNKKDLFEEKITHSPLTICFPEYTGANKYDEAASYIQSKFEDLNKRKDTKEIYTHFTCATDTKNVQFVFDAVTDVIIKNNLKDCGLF
MSN, P26038, UniProt P26038, whole entry: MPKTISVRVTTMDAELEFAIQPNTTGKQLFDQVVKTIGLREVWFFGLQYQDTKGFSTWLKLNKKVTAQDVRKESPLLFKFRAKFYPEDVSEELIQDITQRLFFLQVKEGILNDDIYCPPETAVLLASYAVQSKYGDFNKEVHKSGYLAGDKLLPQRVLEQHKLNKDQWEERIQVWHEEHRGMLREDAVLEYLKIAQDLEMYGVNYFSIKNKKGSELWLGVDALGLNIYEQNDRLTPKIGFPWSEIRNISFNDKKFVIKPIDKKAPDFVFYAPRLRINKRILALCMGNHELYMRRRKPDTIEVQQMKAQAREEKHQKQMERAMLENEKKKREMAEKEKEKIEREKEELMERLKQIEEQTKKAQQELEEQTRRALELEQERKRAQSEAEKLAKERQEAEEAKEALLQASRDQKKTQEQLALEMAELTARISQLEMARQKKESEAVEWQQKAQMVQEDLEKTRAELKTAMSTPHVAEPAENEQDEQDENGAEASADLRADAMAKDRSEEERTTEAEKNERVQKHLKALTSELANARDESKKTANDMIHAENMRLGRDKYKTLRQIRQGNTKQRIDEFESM
PDIA3, P30101, UniProt P30101, whole entry: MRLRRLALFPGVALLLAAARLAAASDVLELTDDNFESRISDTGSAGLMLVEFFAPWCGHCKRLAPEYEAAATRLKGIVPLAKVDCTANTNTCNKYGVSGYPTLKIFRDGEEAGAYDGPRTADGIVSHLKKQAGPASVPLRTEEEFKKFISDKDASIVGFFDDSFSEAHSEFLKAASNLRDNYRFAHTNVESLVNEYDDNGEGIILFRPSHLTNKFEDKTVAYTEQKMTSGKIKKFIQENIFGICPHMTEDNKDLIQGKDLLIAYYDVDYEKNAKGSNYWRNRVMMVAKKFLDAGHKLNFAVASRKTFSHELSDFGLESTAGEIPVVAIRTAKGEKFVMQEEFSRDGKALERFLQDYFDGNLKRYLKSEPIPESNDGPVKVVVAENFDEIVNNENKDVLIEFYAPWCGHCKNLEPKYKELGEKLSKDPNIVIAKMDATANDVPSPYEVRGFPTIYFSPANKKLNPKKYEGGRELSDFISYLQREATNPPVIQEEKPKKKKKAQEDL
PFN2, P35080, UniProt P35080, whole entry: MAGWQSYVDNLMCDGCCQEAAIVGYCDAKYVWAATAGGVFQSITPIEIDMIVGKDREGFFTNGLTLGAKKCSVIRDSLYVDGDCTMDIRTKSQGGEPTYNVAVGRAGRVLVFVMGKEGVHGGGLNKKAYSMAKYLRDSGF
TUBB2B, Q9BVA1, UniProt Q9BVA1, whole entry: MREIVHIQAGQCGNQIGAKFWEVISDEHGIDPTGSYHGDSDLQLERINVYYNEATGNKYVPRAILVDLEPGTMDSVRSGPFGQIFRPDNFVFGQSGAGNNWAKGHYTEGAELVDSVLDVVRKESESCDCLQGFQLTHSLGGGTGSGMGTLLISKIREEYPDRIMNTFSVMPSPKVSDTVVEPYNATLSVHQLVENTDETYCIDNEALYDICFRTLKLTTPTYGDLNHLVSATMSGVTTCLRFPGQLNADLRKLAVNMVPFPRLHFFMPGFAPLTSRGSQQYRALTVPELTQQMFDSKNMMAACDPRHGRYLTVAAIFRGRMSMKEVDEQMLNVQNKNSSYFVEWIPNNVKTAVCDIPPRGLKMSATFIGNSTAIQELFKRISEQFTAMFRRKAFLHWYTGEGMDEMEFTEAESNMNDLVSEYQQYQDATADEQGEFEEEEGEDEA
CDC20, Q12834, UniProt Q12834, whole entry: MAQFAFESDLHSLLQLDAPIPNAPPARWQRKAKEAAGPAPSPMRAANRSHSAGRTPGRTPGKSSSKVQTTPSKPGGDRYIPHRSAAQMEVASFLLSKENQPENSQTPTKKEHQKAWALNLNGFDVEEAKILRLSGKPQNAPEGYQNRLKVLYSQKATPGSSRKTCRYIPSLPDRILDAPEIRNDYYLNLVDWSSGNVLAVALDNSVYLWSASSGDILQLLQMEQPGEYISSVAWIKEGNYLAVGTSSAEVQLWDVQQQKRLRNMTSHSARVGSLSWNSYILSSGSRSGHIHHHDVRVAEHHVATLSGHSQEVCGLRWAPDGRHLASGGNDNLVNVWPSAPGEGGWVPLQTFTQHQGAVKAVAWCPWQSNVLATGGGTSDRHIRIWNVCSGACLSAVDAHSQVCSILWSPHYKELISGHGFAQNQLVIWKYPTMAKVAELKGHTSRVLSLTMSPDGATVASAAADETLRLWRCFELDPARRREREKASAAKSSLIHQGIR
COL1A1, P02452, UniProt P02452, whole entry: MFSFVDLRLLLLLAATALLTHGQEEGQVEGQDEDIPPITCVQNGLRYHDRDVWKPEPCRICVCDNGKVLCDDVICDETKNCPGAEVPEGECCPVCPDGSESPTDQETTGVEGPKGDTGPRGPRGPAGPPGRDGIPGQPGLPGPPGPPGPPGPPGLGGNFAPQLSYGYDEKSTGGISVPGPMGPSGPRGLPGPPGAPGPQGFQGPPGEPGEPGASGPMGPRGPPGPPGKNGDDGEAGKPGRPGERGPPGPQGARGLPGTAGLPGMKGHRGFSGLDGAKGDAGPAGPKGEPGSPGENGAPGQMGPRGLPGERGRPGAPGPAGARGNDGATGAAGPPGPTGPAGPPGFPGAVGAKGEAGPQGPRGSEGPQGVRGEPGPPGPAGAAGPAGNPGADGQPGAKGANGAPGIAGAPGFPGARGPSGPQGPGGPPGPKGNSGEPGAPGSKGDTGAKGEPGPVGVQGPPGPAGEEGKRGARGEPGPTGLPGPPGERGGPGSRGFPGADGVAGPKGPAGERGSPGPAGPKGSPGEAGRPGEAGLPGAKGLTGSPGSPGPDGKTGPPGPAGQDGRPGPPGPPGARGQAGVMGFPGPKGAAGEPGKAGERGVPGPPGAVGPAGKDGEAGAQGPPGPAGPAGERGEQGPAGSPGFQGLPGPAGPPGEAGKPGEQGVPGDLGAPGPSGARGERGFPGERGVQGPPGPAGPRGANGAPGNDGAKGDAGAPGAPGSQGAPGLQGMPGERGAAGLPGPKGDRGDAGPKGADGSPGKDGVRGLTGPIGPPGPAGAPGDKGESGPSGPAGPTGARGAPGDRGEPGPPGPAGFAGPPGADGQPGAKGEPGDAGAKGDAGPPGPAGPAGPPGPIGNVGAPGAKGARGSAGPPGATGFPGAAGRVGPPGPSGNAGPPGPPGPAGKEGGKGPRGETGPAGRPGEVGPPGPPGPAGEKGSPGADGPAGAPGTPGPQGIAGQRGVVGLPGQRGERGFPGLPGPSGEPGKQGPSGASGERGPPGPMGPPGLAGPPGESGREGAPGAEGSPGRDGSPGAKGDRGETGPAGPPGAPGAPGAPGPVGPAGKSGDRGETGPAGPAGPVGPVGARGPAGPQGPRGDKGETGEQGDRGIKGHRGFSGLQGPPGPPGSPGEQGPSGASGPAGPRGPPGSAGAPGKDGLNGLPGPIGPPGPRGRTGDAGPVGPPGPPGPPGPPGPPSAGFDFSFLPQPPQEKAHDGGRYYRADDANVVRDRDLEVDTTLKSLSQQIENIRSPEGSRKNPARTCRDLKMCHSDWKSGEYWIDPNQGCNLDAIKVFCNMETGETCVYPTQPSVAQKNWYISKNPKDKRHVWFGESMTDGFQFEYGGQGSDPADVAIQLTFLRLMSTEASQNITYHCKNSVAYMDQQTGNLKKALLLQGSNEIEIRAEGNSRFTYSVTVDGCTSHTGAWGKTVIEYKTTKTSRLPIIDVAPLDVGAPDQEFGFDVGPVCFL
RAD18, Q9NS91, UniProt Q9NS91, whole entry: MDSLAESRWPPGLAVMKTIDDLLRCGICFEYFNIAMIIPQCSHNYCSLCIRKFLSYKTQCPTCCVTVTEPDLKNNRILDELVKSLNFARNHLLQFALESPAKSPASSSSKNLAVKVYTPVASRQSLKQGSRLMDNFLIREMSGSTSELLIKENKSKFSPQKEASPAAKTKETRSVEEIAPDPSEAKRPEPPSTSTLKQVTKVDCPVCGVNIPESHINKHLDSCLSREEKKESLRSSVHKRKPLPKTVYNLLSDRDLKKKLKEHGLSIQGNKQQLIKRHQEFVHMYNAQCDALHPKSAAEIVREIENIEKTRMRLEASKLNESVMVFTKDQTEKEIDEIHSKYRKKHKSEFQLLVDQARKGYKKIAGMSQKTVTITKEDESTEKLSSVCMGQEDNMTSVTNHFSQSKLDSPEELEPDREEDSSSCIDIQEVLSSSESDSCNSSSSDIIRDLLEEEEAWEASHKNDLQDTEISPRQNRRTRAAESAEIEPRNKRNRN

How the values were obtained:
Assay in all cases: PRISMA enrichment of interactor (LFQ) in peptide spot vs all other peptide spots (log2 fold change); higher = stronger / more specific binding of the interactor to the peptide
[1] = target: SNW1, Q13573
Procedure: (§1)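 PRISMA: 221 full-length sORF-encoded peptides (3-15 aa), plus SOS1/GLUT1 control peptides, were spot-synthesized on cellulose membranes in triplicate. Membranes were incubated with HEK293T lysate, and bound proteins were identified by LC-MS/MS with LFQ. Enrichment is the log2 fold change versus all other peptide spots; only significant interactors are listed (cutoff c=6, x0=2.8).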

[2] = target: SSBP1, Q04837
Procedure: as §1

[3] = target: THYN1, Q9P016
Procedure: as §1

[4] = target: TIA1, P31483
Procedure: as §1

[5] = target: TOMM34, Q15785
Procedure: as §1

[6] = target: TPX2, Q9ULW0
Procedure: as §1

[7] = target: TRPT1, Q86TN4
Procedure: as §1

[8] = target: UFM1, P61960
Procedure: as §1

[9] = target: UTP11, Q9Y3A2
Procedure: as §1

[10] = target: UTP15, Q8TED0
Procedure: as §1

[11] = target: VRK1, Q99986
Procedure: as §1

[12] = target: VRK2, Q86Y07
Procedure: as §1

[13] = target: YRDC, Q86U90
Procedure: as §1

[14] = target: ZC2HC1A, Q96GY0
Procedure: as §1

[15] = target: ZC3HAV1L, Q96H79
Procedure: as §1

[16] = target: ZNF207, O43670
Procedure: as §1

[17] = target: ZNF512, Q96ME7
Procedure: as §1

[18] = target: ZNF593, O00488
Procedure: as §1

[19] = target: ZNF638, Q14966
Procedure: as §1

[20] = target: ZNF706, Q9Y5V0
Procedure: as §1

[21] = target: ZNF768, Q9H5H4
Procedure: as §1

[22] = target: ACACA, Q13085
Procedure: as §1

[23] = target: BLM, P54132
Procedure: as §1

[24] = target: EIF3K, Q9UBQ5
Procedure: as §1

[25] = target: FYTTD1, Q96QD9
Procedure: as §1

[26] = target: GNAI2, P04899
Procedure: as §1

[27] = target: MSN, P26038
Procedure: as §1

[28] = target: NUP153, P49790
Procedure: as §1

[29] = target: PDCD10, Q9BUL8
Procedure: as §1

[30] = target: PDIA3, P30101
Procedure: as §1

[31] = target: PFN2, P35080
Procedure: as §1

[32] = target: POLDIP2, Q9Y2S7
Procedure: as §1

[33] = target: POP7, O75817
Procedure: as §1

[34] = target: RAB14, P61106
Procedure: as §1

[35] = target: RPP38, P78345
Procedure: as §1

[36] = target: SDF4, Q9BRK5
Procedure: as §1

[37] = target: TUBB2B, Q9BVA1
Procedure: as §1

[38] = target: ZC3H15, Q8WU90
Procedure: as §1

[39] = target: ACAT2, Q9BWD1
Procedure: as §1

[40] = target: CHPT1, Q8WUD6
Procedure: as §1

[41] = target: GCOM1
Procedure: as §1

[42] = target: GPATCH8, Q9UKJ3
Procedure: as §1

[43] = target: PDF, Q9HBH1
Procedure: as §1

[44] = target: CDC20, Q12834
Procedure: as §1

[45] = target: COL1A1, P02452
Procedure: as §1

[46] = target: COL1A2, P08123
Procedure: as §1

[47] = target: GPC1, P35052
Procedure: as §1

[48] = target: HASPIN, Q8TF76
Procedure: as §1

[49] = target: MCU, Q8NE86
Procedure: as §1

[50] = target: MRPL55, Q7Z7F7
Procedure: as §1

[51] = target: NAE1, Q13564
Procedure: as §1

[52] = target: RAD18, Q9NS91
Procedure: as §1

[53] = target: SKI, P12755
Procedure: as §1

[54] = target: VPS52, Q8N1B4
Procedure: as §1

MTEYWVPEI [RCBTB2]
PRISMA enrichment of interactor (log2) [1]: 5.86 | PRISMA enrichment of interactor (log2) [2]: 5.73 | PRISMA enrichment of interactor (log2) [3]: 5.07 | PRISMA enrichment of interactor (log2) [4]: 5.14 | PRISMA enrichment of interactor (log2) [5]: 6.48 | PRISMA enrichment of interactor (log2) [6]: 7.22 | PRISMA enrichment of interactor (log2) [7]: 4.89 | PRISMA enrichment of interactor (log2) [8]: 4.47 | PRISMA enrichment of interactor (log2) [9]: 4.97 | PRISMA enrichment of interactor (log2) [10]: 5.34 | PRISMA enrichment of interactor (log2) [11]: 4.3 | PRISMA enrichment of interactor (log2) [12]: 3.86 | PRISMA enrichment of interactor (log2) [13]: 4.27 | PRISMA enrichment of interactor (log2) [14]: 5.51 | PRISMA enrichment of interactor (log2) [15]: 4.08 | PRISMA enrichment of interactor (log2) [16]: 4.37 | PRISMA enrichment of interactor (log2) [17]: 5.71 | PRISMA enrichment of interactor (log2) [18]: 4.2 | PRISMA enrichment of interactor (log2) [19]: 6.5 | PRISMA enrichment of interactor (log2) [20]: 4.18 | PRISMA enrichment of interactor (log2) [21]: 6.49

MAHQLESILAMRKRM [ATF2]
PRISMA enrichment of interactor (log2) [22]: 4.29 | PRISMA enrichment of interactor (log2) [23]: 7.13 | PRISMA enrichment of interactor (log2) [24]: 5.75 | PRISMA enrichment of interactor (log2) [25]: 5.74 | PRISMA enrichment of interactor (log2) [26]: 5.73 | PRISMA enrichment of interactor (log2) [27]: 4.87 | PRISMA enrichment of interactor (log2) [28]: 5.21 | PRISMA enrichment of interactor (log2) [29]: 4.55 | PRISMA enrichment of interactor (log2) [30]: 7.56 | PRISMA enrichment of interactor (log2) [31]: 5.82 | PRISMA enrichment of interactor (log2) [32]: 7 | PRISMA enrichment of interactor (log2) [33]: 4.15 | PRISMA enrichment of interactor (log2) [34]: 6.94 | PRISMA enrichment of interactor (log2) [35]: 4.49 | PRISMA enrichment of interactor (log2) [36]: 6.62 | PRISMA enrichment of interactor (log2) [37]: 7.67 | PRISMA enrichment of interactor (log2) [38]: 5.07

MASKALAAEKWPRSP [FAM63B]
PRISMA enrichment of interactor (log2) [39]: 4.46 | PRISMA enrichment of interactor (log2) [40]: 3.79 | PRISMA enrichment of interactor (log2) [41]: 3.64 | PRISMA enrichment of interactor (log2) [42]: 4.16 | PRISMA enrichment of interactor (log2) [43]: 6.81

MAAAAGRP [TMEM259]
PRISMA enrichment of interactor (log2) [39]: 4.37 | PRISMA enrichment of interactor (log2) [44]: 5.69 | PRISMA enrichment of interactor (log2) [45]: 4.35 | PRISMA enrichment of interactor (log2) [46]: 7.27 | PRISMA enrichment of interactor (log2) [47]: 6.58 | PRISMA enrichment of interactor (log2) [48]: 4.42 | PRISMA enrichment of interactor (log2) [49]: 11.9 | PRISMA enrichment of interactor (log2) [50]: 4.6 | PRISMA enrichment of interactor (log2) [51]: 5.69 | PRISMA enrichment of interactor (log2) [52]: 6.76 | PRISMA enrichment of interactor (log2) [53]: 6.05 | PRISMA enrichment of interactor (log2) [54]: 13.4
